Measured values published in paper PMC5224924.
Changes are numbered by the printed parent chain. Results are given in words; binding and its absence hold for the method and conditions named. In cells and extracts the contact can be indirect. Some results given as binding are weak or reduced against the parent protein; the word gives no strength.

Protein sequences, listed by entry. Tags and fused reporters are not part of them. Residues count along the entry.
UniProt P62812, residues 28-455: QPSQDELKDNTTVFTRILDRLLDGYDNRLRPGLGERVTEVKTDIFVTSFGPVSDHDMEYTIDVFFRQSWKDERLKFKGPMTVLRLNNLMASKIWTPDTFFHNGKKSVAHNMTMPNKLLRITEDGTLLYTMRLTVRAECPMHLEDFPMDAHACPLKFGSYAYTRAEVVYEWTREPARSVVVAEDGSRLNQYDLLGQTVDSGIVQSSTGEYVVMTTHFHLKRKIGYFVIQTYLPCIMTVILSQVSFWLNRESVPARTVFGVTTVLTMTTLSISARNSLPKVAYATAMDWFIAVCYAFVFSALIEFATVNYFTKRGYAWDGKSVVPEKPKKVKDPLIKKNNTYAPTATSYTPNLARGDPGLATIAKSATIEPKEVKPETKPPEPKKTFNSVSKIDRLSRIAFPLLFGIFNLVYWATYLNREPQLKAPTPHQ
UniProt P12023, residues 18-770: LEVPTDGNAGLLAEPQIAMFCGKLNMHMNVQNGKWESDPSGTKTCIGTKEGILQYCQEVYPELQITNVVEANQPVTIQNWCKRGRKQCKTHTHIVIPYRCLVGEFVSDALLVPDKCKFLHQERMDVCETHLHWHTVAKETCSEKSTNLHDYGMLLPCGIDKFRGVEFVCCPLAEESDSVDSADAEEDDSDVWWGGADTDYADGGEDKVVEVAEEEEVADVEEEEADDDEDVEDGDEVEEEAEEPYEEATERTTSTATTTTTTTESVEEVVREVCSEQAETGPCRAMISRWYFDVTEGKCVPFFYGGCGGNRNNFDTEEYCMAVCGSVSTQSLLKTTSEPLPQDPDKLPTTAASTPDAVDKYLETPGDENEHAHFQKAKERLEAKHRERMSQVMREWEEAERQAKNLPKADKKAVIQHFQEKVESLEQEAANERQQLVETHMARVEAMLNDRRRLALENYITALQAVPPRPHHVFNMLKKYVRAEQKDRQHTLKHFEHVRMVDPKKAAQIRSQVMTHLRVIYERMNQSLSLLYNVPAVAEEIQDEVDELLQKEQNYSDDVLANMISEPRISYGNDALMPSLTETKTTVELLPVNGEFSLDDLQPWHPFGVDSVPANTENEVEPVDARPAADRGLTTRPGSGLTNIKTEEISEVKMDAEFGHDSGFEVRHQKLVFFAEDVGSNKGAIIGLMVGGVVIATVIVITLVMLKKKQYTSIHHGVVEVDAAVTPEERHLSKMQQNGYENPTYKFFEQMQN

Key:
[1] = target: T1, KCC2 (endogenous, mouse hippocampus) (mouse (endogenous in hippocampus)) (UniProt Q91V14); test: co-IP; mouse hippocampal lysates, anti-KCC2 antibody, protocol as for HEK293 cells; western blot
T1 sequence: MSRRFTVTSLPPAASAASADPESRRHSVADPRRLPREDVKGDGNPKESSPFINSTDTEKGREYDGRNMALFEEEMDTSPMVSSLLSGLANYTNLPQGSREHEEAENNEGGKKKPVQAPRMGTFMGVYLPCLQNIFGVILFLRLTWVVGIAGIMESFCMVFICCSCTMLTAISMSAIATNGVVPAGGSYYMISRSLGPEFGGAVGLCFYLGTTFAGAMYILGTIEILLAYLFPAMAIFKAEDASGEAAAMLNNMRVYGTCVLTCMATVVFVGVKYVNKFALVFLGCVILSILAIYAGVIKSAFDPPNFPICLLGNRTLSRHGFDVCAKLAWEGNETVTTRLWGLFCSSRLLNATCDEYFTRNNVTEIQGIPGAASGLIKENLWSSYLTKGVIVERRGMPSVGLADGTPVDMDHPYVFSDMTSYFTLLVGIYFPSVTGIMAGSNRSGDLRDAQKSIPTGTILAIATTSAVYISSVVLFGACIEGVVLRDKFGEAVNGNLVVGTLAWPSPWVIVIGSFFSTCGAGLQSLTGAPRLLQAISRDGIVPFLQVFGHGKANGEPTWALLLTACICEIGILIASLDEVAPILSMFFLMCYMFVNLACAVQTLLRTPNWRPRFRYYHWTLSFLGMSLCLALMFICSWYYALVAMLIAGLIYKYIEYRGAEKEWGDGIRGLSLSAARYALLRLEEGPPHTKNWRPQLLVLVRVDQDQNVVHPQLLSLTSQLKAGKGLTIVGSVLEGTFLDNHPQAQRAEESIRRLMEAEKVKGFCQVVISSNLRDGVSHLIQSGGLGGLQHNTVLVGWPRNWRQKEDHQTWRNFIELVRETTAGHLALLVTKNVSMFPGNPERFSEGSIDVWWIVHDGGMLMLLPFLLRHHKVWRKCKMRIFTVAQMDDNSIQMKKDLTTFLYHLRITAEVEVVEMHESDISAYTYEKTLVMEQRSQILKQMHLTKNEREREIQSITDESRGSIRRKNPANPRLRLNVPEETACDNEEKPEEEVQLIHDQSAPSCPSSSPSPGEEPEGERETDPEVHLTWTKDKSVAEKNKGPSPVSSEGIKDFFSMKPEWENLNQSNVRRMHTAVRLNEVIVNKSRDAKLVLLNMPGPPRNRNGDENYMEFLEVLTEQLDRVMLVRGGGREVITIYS

[2] = target: T2, K+-Cl- cotransporter KCC2 (UniProt Q63633); test: proximity ligation; HEK293 cells transfected, fixed with 4% PFA, permeabilised; anti-KCC2 (mouse) and anti-APP (rabbit) antibodies, Duolink II probes; cells transfected with one construct alone as controls
T2 sequence: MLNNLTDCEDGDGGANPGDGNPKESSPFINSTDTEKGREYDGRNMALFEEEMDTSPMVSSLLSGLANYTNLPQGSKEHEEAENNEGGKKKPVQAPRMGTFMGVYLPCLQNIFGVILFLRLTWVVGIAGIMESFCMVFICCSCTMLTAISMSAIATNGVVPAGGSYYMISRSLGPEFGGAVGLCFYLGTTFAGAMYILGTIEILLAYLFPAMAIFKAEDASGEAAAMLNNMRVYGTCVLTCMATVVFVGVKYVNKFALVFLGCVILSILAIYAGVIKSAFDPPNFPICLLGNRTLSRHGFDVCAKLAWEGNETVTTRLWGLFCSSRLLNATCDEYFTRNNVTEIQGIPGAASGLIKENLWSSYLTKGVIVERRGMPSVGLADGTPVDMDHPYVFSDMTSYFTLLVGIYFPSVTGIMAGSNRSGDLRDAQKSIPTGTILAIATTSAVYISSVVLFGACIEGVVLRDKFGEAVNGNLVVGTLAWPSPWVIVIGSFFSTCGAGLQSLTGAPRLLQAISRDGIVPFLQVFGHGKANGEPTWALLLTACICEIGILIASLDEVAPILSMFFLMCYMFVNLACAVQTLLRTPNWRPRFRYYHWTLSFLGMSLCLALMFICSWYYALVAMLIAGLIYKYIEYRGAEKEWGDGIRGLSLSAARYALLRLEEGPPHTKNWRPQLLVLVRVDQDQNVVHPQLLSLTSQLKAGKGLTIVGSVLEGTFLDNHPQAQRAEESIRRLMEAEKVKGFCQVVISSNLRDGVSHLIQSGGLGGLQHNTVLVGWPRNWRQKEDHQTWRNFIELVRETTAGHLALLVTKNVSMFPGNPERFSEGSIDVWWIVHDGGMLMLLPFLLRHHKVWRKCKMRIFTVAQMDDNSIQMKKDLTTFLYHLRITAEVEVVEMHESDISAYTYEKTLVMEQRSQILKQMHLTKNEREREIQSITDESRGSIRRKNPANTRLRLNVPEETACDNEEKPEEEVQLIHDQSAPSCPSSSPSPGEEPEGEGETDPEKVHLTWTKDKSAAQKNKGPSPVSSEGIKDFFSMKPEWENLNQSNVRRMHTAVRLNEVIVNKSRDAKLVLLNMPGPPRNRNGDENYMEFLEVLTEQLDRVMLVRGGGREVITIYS

[3] = target: T3, mKCC2 (KCC2 Y903A Y1087A) (UniProt Q63633); test: as above
T3 sequence: T2 sequence with Y903A, Y1087A

[4] = target: GABAA receptor α1 subunit (UniProt P62812); test: co-IP; HEK293 cells co-transfected; lysis buffer 50 mM Tris pH 7.5, 150 mM NaCl, 1 mM EDTA, 1% NP40; anti-KCC2, APPc or anti-GABAAR α1 antibody at 4°C overnight, protein A agarose; rabbit or mouse IgG as control; western blot
[5] = target: T2, K+-Cl- cotransporter KCC2; test: as above
[6] = target: T3, mKCC2 (KCC2 Y903A Y1087A); test: as above

| binding [1] | binding [2] | binding [3] | binding [4] | binding [5] | binding [6] | Substance |
| --- | --- | --- | --- | --- | --- | --- |
| binds |  |  |  |  |  | APP (endogenous, mouse hippocampus) (from UniProt P12023 18-770) |
|  | binds | binds | no binding | binds | binds | full length human APP (hAPP695) (from UniProt P05067-4 18-695) |
